Measurements reported in PubChem BioAssay AID493246 (Drosophila RNAi Screening Center, 2011)

- Purpose: 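Genome-wide search for dsRNAs that reduce cell number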 (primary screen)
- Cell system: Drosophila Kc and S2R+ cells
- Reagents: long dsRNA against Drosophila genes
- Measurement: 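Cell number per well after knock-down, printed as raw plate values; calls were based on per-plate z-scores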
- Reading the numbers: Kc cell number and S2R+ cell number: higher = more cells remaining
- Rule for the call: 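Active when the per-plate z-score of cell number is 3 or more in the direction of fewer cells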
The deposit covers about 21,000 reagents; shown is a random part of those that have a named target and a result. Over the whole deposit, 429 (2%) got an active call. 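Values are raw and not normalised between plates; calls rest on per-plate z-scores that were not deposited.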 Unmarked entries are inactive. A plus sign joins genes that one reagent is predicted to hit. The record does not give: the amount of reagent, the time to read-out.

predicted target	dsRNA	Kc cell number, rep 1	Kc cell number, rep 2	S2R+ cell number, rep 1	S2R+ cell number, rep 2
Cyp12a5	DRSC16621	1.39e6	1.48e6	1.01e6	1.12e6
CG5800	DRSC19962	1.52e6	1.60e6	1.09e6	1.22e6
CG6674	DRSC10692	1.23e6	1.29e6	1.44e6	1.08e6
NKAIN	DRSC04531	1.32e6	1.39e6	1.05e6	1.00e6
Sik3	DRSC06505	1.65e6	1.64e6	1.18e6	1.30e6
Sik3	DRSC06771	1.40e6	1.40e6	1.29e6	1.31e6
so	DRSC07693	1.00e6 (active)	1.06e6	5.40e5	7.16e5
Rcd7	DRSC10100	1.33e6	1.43e6	1.18e6	1.26e6
GILT1	DRSC16565	1.49e6	1.67e6	1.30e6	1.73e6
CG8997	DRSC01900	1.45e6	1.57e6	1.17e6	1.32e6
CG14118	DRSC10122	1.29e6	1.39e6	1.17e6	1.29e6
CG18210 (retired record)	DRSC19089	1.63e6	1.87e6	1.10e6	1.31e6
CG18210 (retired record)	DRSC19795	5.62e5		8.72e5	
CG8360	DRSC03085	1.71e6	1.72e6	1.21e6	1.34e6
t-Grip91	DRSC01506	1.61e6	1.61e6	9.97e5	1.20e6
cact	DRSC03501	1.35e6	1.42e6	1.13e6	1.16e6
CG3285	DRSC00589	1.35e6	1.53e6	1.08e6	1.15e6
Ir7b	DRSC18009	1.41e6	1.40e6	1.04e6	1.13e6
BORCS7 + CG13430	DRSC06392	1.44e6	1.46e6	1.30e6	1.31e6
BORCS7 + CG13430	DRSC06707	1.59e6	1.41e6	9.71e5	1.24e6
CG4577	DRSC00658	1.39e6	1.49e6	1.05e6	1.20e6
CG13110	DRSC02208	1.52e6	1.47e6	1.09e6	1.14e6
Thor	DRSC00770	1.41e6	1.35e6	8.85e5	9.95e5
prd1	DRSC15227	1.88e6	1.90e6	1.23e6	1.34e6
Rab9	DRSC03281	1.50e6	1.67e6	1.43e6	3.78e5
Set	DRSC16861	1.68e6	1.77e6	1.39e6	1.49e6
CG5376	DRSC15782	1.30e6	1.51e6	8.89e5	1.06e6
Mi-2	DRSC11222	1.79e6	1.90e6	1.03e6	1.16e6
CG31797	DRSC02476	1.52e6	1.59e6	1.34e6	3.51e5
CG31797	DRSC02477	1.49e6	1.64e6	1.38e6	3.22e5
CG6426	DRSC06985	1.65e6	1.53e6	1.23e6	1.35e6
Inos	DRSC07655	1.46e6	1.52e6	1.27e6	1.40e6
lili	DRSC14143	1.49e6	1.56e6	1.17e6	1.25e6
CG33784	DRSC12764	1.38e6	1.50e6	1.05e6	1.22e6

No new results follow: entries from further up.
predicted target	dsRNA	Kc cell number, rep 1	Kc cell number, rep 2	S2R+ cell number, rep 1	S2R+ cell number, rep 2
CG8997	DRSC01900	1.45e6	1.57e6	1.17e6	1.32e6
CG14118	DRSC10122	1.29e6	1.39e6	1.17e6	1.29e6
CG18210 (retired record)	DRSC19089	1.63e6	1.87e6	1.10e6	1.31e6
CG18210 (retired record)	DRSC19795	5.62e5		8.72e5	
CG8360	DRSC03085	1.71e6	1.72e6	1.21e6	1.34e6
t-Grip91	DRSC01506	1.61e6	1.61e6	9.97e5	1.20e6
cact	DRSC03501	1.35e6	1.42e6	1.13e6	1.16e6
CG3285	DRSC00589	1.35e6	1.53e6	1.08e6	1.15e6

The results go on.
predicted target	dsRNA	Kc cell number, rep 1	Kc cell number, rep 2	S2R+ cell number, rep 1	S2R+ cell number, rep 2
CG14502	DRSC06473	1.32e6	1.39e6	1.26e6	1.25e6
Pef	DRSC06695	1.62e6	1.56e6	1.11e6	1.17e6
CG17751	DRSC15261	1.35e6	1.48e6	1.06e6	1.10e6
CG2889	DRSC18236	1.57e6	1.55e6	1.04e6	1.11e6
snRNP-U1-70K	DRSC03612	1.56e6	1.79e6	1.05e6	1.20e6
Tpst	DRSC18989	1.52e6	1.67e6	1.06e6	1.15e6
Tpst	DRSC19696	1.95e6	1.76e6	1.22e6	1.35e6
Tpst	DRSC19723	1.76e6	1.64e6	1.07e6	1.23e6
Tpst	DRSC19724	9.00e5 (active)	8.45e5	8.21e5	8.67e5
Spn42De	DRSC05011	1.64e6	1.72e6	1.22e6	1.39e6
cup	DRSC03516	1.41e6	1.34e6	5.24e5	6.03e5
CG8679	DRSC03109	1.63e6	1.68e6	1.32e6	4.32e5
CG4066	DRSC15541	1.68e6	1.76e6	1.35e6	1.48e6
Ziz	DRSC02506	1.62e6	1.61e6	1.26e6	1.49e6
Ziz	DRSC02976	1.80e6	1.92e6	1.35e6	1.62e6
Inx3	DRSC14857	6.24e5		8.24e5	
Ote	DRSC07498	1.37e6	1.44e6	1.15e6	1.21e6
Cph	DRSC17507	1.40e6	1.51e6	1.08e6	1.11e6
Cph	DRSC18434	1.51e6	1.49e6	1.05e6	1.15e6
Anp	DRSC14112	1.36e6	1.52e6	9.23e5	1.15e6
ZnT63C	DRSC08032	1.60e6	1.40e6	1.04e6	1.22e6
ZnT63C	DRSC08033	1.47e6	1.53e6	9.57e5	1.13e6
ZnT63C	DRSC08519	1.46e6	1.47e6	1.31e6	1.25e6
CG6066	DRSC15959	1.57e6	1.58e6	1.10e6	1.14e6
CG14817	DRSC18547	1.56e6	1.55e6	9.49e5	1.08e6
